Assay results reported in US20230242871A1, “GENERATION OF PRIMORDIAL GERM CELLS AND METHODS OF USING THE SAME” (The Board of Trustees of the Leland Stanfor Junior …, priority 2020, published 2023).

B1: CD369 (protein, UniProt Q9BXN2 1-247, looked up)
C-type lectin domain family 7 …: MEYHPDLENLDEDGYTQLHFDSQSNTRIAVVSEKGSCAASPPWRLIAVILGILCLVILVIAVVLGTMAIWRSNSGSNTLENGYFLSRNKENHSQPTQSSLEDSVTPTKAVKTTGVLSSPCPPNWIIYEKSCYLFSMSLNSWDGSKRQCWQLGSNLLKIDSSNELGFIVKQVSSQPDNSFWIGLSRPQTEVPWLWEDGSTFSSNLFQIRTTATQENPSPNCVWIHVSVIYDQLCSVPSYSICEKKFSM
B2: CD197 (protein, UniProt P32248 25-378, looked up)
C-C chemokine receptor type 7: QDEVTDDYIGDNTTVDYTLFESLCSKKDVRNFKAWFLPIMYSIICFVGLLGNGLVVLTYIYFKRLKTMTDTYLLNLAVADILFLLTLPFWAYSAAKSWVFGVHFCKLIFAIYKMSFFSGMLLLLCISIDRYVAIVQAVSAHRHRARVLLISKLSCVGIWILATVLSIPELLYSDLQRSSSEQAMRCSLITEHVEAFITIQVAQMVIGFLVPLLAMSFCYLVIIRTLLQARNFERNKAIKVIIAVVVVFIVFQLPYNGVVLAQTVANFNITSSTCELSKQLNIAYDVTYSLACVRCCVNPFLYAFIGVKFRNDLFKLFKDLGCLSQEQLRQWSSCRHIRRSSMSVEAETTTTFSP
B3: CD192 (protein, UniProt P41597 1-374, looked up)
C-C chemokine receptor type 2: MLSTSRSRFIRNTNESGEEVTTFFDYDYGAPCHKFDVKQIGAQLLPPLYSLVFIFGFVGNMLVVLILINCKKLKCLTDIYLLNLAISDLLFLITLPLWAHSAANEWVFGNAMCKLFTGLYHIGYFGGIFFIILLTIDRYLAIVHAVFALKARTVTFGVVTSVITWLVAVFASVPGIIFTKCQKEDSVYVCGPYFPRGWNNFHTIMRNILGLVLPLLIMVICYSGILKTLLRCRNEKKRHRAVRVIFTIMIVYFLFWTPYNIVILLNTFQEFFGLSNCESTSQLDQATQVTETLGMTHCCINPIIYAFVGEKFRSLFHIALGCRIAPLQKPVCGGPGVRPGKNVKVTTQGLLDGRGKGKSIGRAPEASLQDKEGA
B4: CD7 (protein, UniProt P09564 26-240, looked up)
T-cell antigen CD7: AQEVQQSPHCTTVPVGASVNITCSTSGGLRGIYLRQLGPQPQDIIYYEDGVVPTTDRRFRGRIDFSGSQDNLTITMHRLQLSDTGTYTCQAITEVNVYGSGTLVLVTEEQSQGWHRCSDAPPRASALPAPPTGSALPDPQTASALPDPPAASALPAALAVISFLLGLGLGVACVLARTQIKKLCSWRDKNSAACVVYEDMSHSRCNTLSSPNQYQ
B5: CD355 (protein, UniProt O95727 18-393, looked up)
Cytotoxic and regulatory …: SLTNHTETITVEEGQTLTLKCVTSLRKNSSLQWLTPSGFTIFLNEYPALKNSKYQLLHHSANQLSITVPNVTLQDEGVYKCLHYSDSVSTKEVKVIVLATPFKPILEASVIRKQNGEEHVVLMCSTMRSKPPPQITWLLGNSMEVSGGTLHEFETDGKKCNTTSTLIIHTYGKNSTVDCIIRHRGLQGRKLVAPFRFEDLVTDEETASDALERNSLSSQDPQQPTSTVSVTEDSSTSEIDKEEKEQTTQDPDLTTEANPQYLGLARKKSGILLLTLVSFLIFILFIIVQLFIMKLRKAHVIWKKENEVSEHTLESYRSRSNNEETSSEEKNGQSSHPMRCMNYITKLYSEAKTKRKENVQHSKLEEKHIQVPESIV
B6: CD307e (protein, UniProt Q96RD9 16-977, looked up)
Fc receptor-like protein 5: QFARTPRPIIFLQPPWTTVFQGERVTLTCKGFRFYSPQKTKWYHRYLGKEILRETPDNILEVQESGEYRCQAQGSPLSSPVHLDFSSASLILQAPLSVFEGDSVVLRCRAKAEVTLNNTIYKNDNVLAFLNKRTDFHIPHACLKDNGAYRCTGYKESCCPVSSNTVKIQVQEPFTRPVLRASSFQPISGNPVTLTCETQLSLERSDVPLRFRFFRDDQTLGLGWSLSPNFQITAMWSKDSGFYWCKAATMPYSVISDSPRSWIQVQIPASHPVLTLSPEKALNFEGTKVTLHCETQEDSLRTLYRFYHEGVPLRHKSVRCERGASISFSLTTENSGNYYCTADNGLGAKPSKAVSLSVTVPVSHPVLNLSSPEDLIFEGAKVTLHCEAQRGSLPILYQFHHEGAALERRSANSAGGVAISFSLTAEHSGNYYCTADNGFGPQRSKAVSLSVTVPVSHPVLTLSSAEALTFEGATVTLHCEVQRGSPQILYQFYHEDMPLWSSSTPSVGRVSFSFSLTEGHSGNYYCTADNGFGPQRSEVVSLFVTVPVSRPILTLRVPRAQAVVGDLLELHCEAPRGSPPILYWFYHEDVTLGSSSAPSGGEASFNLSLTAEHSGNYSCEANNGLVAQHSDTISLSVIVPVSRPILTFRAPRAQAVVGDLLELHCEALRGSSPILYWFYHEDVTLGKISAPSGGGASFNLSLTTEHSGIYSCEADNGLEAQRSEMVTLKVAVPVSRPVLTLRAPGTHAAVGDLLELHCEALRGSPLILYRFFHEDVTLGNRSSPSGGASLNLSLTAEHSGNYSCEADNGLGAQRSETVTLYITGLTANRSGPFATGVAGGLLSIAGLAAGALLLYCWLSRKAGRKPASDPARSPSDSDSQEPTYHNVPAWEELQPVYTNANPRGENVVYSEVRIIQEKKKHAVASDPRHLRNKGSPIIYSEVKVASTPVSGSLFLASSAPHR
B7: CD11a (protein, UniProt P20701 26-1170, looked up)
Integrin alpha-L: YNLDVRGARSFSPPRAGRHFGYRVLQVGNGVIVGAPGEGNSTGSLYQCQSGTGHCLPVTLRGSNYTSKYLGMTLATDPTDGSILACDPGLSRTCDQNTYLSGLCYLFRQNLQGPMLQGRPGFQECIKGNVDLVFLFDGSMSLQPDEFQKILDFMKDVMKKLSNTSYQFAAVQFSTSYKTEFDFSDYVKRKDPDALLKHVKHMLLLTNTFGAINYVATEVFREELGARPDATKVLIIITDGEATDSGNIDAAKDIIRYIIGIGKHFQTKESQETLHKFASKPASEFVKILDTFEKLKDLFTELQKKIYVIEGTSKQDLTSFNMELSSSGISADLSRGHAVVGAVGAKDWAGGFLDLKADLQDDTFIGNEPLTPEVRAGYLGYTVTWLPSRQKTSLLASGAPRYQHMGRVLLFQEPQGGGHWSQVQTIHGTQIGSYFGGELCGVDVDQDGETELLLIGAPLFYGEQRGGRVFIYQRRQLGFEEVSELQGDPGYPLGRFGEAITALTDINGDGLVDVAVGAPLEEQGAVYIFNGRHGGLSPQPSQRIEGTQVLSGIQWFGRSIHGVKDLEGDGLADVAVGAESQMIVLSSRPVVDMVTLMSFSPAEIPVHEVECSYSTSNKMKEGVNITICFQIKSLIPQFQGRLVANLTYTLQLDGHRTRRRGLFPGGRHELRRNIAVTTSMSCTDFSFHFPVCVQDLISPINVSLNFSLWEEEGTPRDQRAQGKDIPPILRPSLHSETWEIPFEKNCGEDKKCEANLRVSFSPARSRALRLTAFASLSVELSLSNLEEDAYWVQLDLHFPPGLSFRKVEMLKPHSQIPVSCEELPEESRLLSRALSCNVSSPIFKAGHSVALQMMFNTLVNSSWGDSVELHANVTCNNEDSDLLEDNSATTIIPILYPINILIQDQEDSTLYVSFTPKGPKIHQVKHMYQVRIQPSIHDHNIPTLEAVVGVPQPPSEGPITHQWSVQMEPPVPCHYEDLERLPDAAEPCLPGALFRCPVVFRQEILVQVIGTLELVGEIEASSMFSLCSSLSISFNSSKHFHLYGSNASLAQVVMKVDVVYEKQMLYLYVLSGIGGLLLLLLIFIVLYKVGFFKRNLKEKMEAGRGVPNGIPAEDSEQLASGQEAGDPGCLKPLHEKDSESGGGKD
B8: CD269 (protein, UniProt Q02223 1-184, looked up)
Tumor necrosis factor …: MLQMAGQCSQNEYFDSLLHACIPCQLRCSSNTPPLTCQRYCNASVTNSVKGTNAILWTCLGLSLIISLAVFVLMFLLRKINSEPLKDEFKNTGSGLLGMANIDLEKSRTGDEIILPRGLEYTVEECTCEDCIKSKPKVDSDHCFPLPAMEEGATILVTTKTNDYCKSLPAALSATEIEKSISAR
B9: CD119 (protein, UniProt P15260 18-489, looked up)
Interferon gamma receptor 1: EMGTADLGPSSVPTPTNVTIESYNMNPIVYWEYQIMPQVPVFTVEVKNYGVKNSEWIDACINISHHYCNISDHVGDPSNSLWVRVKARVGQKESAYAKSEEFAVCRDGKIGPPKLDIRKEEKQIMIDIFHPSVFVNGDEQEVDYDPETTCYIRVYNVYVRMNGSEIQYKILTQKEDDCDEIQCQLAIPVSSLNSQYCVSAEGVLHVWGVTTEKSKEVCITIFNSSIKGSLWIPVVAALLLFLVLSLVFICFYIKKINPLKEKSIILPKSLISVVRSATLETKPESKYVSLITSYQPFSLEKEVVCEEPLSPATVPGMHTEDNPGKVEHTEELSSITEVVTTEENIPDVVPGSHLTPIERESSSPLSSNQSEPGSIALNSYHSRNCSESDHSRNGFDTDSSCLESHSSLSDSEFPPNNKGEIKTEGQELITVIKAPTSFGYDKPHVLVDLLVDDSGKESLIGYRPTEDSKEFS
B10: CD371 (protein, UniProt Q5QGZ9 1-265, looked up)
C-type lectin domain family …: MSEEVTYADLQFQNSSEMEKIPEIGKFGEKAPPAPSHVWRPAALFLTLLCLLLLIGLGVLASMFHVTLKIEMKKMNKLQNISEELQRNISLQLMSNMNISNKIRNLSTTLQTIATKLCRELYSKEQEHKCKPCPRRWIWHKDSCYFLSDDVQTWQESKMACAAQNASLLKINNKNALEFIKSQSRSYDYWLGLSPEEDSTRGMRVDNIINSSAWVIRNAPDLNNMYCGYINRLYVQYYHCTYKKRMICEKMANPVQLGSTYFREA
B11: CD112 (protein, UniProt Q92692 32-538, looked up)
Nectin-2: QDVRVQVLPEVRGQLGGTVELPCHLLPPVPGLYISLVTWQRPDAPANHQNVAAFHPKMGPSFPSPKPGSERLSFVSAKQSTGQDTEAELQDATLALHGLTVEDEGNYTCEFATFPKGSVRGMTWLRVIAKPKNQAEAQKVTFSQDPTTVALCISKEGRPPARISWLSSLDWEAKETQVSGTLAGTVTVTSRFTLVPSGRADGVTVTCKVEHESFEEPALIPVTLSVRYPPEVSISGYDDNWYLGRTDATLSCDVRSNPEPTGYDWSTTSGTFPTSAVAQGSQLVIHAVDSLFNTTFVCTVTNAVGMGRAEQVIFVRETPNTAGAGATGGIIGGIIAAIIATAVAATGILICRQQRKEQTLQGAEEDEDLEGPPSYKPPTPKAKLEAQEMPSQLFTLGASEHSPLKTPYFDAGASCTEQEMPRYHELPTLEERSGPLHPGATSLGSPIPVPPGPPAVEDVSLDLEDEEGEEEEEYLDKINPIYDALSYSSPSDSYQGKGFVMSRAMYV

Legend:
Assay in all cases: High-throughput cell-surface marker screening (LEGENDScreen), %PE+
Assay type in all cases: cell-based, human
Conditions in all cases: percentage of cells bound to the PE-conjugated antibody (LEGENDScreen)
[1] = system: undifferentiated hPSC (D0)
D3.5 SOX17-GFP- non-PGCs = system: D3.5 SOX17-GFP- non-PGCs
D3.5 SOX17-GFP+ PGCs = system: D3.5 SOX17-GFP+ PGCs

Row | Molecule | % PE+ in H1 UD [1] | % PE+ in non-PGCs (D3.5 SOX17-GFP- non-PGCs) | % PE+ in PGCs (D3.5 SOX17-GFP+ PGCs)
1 | B1 | 0.21% | 0.0003541% | 0%
2 | B2 | 2.73% | 0.01304% | 0.004315%
3 | B3 | 0.16% | 0.0003137% | 0%
4 | B4 | 18.6% | 0.2417% | 0.2105%
5 | B5 | 0.19% | 0.0001216% | 0%
6 | B6 | 0.18% | 0% | 0%
7 | B7 | 0.3% | 5.663E-05% | 0%
8 | B8 | 0.12% | 3.387E-05% | 0%
9 | B9 | 99.8% | 0.4326% | 0.3282%
10 | B10 | 0.12% | 0.002529% | 0%
11 | B11 | 99.9% | 0.8217% | 0.8468%
